PubChem BioAssay AID1259331, Drosophila RNAi Screening Center – 2017
The deposit covers about 3,100 reagents; below is a part drawn at random. 126 of all reagents (4.1%) count as active. 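Calls are per reagent; zinc was so toxic that few knock-downs lowered ATP further, so most hits raise ATP.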 Raw values vary from plate to plate and are shown uncorrected. Unmarked entries are inactive. A plus sign joins genes that one reagent is predicted to hit. The record does not give: the amount of reagent.

- Screen: 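Genes whose knock-down changes cell survival under toxic zinc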 (primary screen)
- Cell system: Drosophila S2R+ cells
- Reagents: long dsRNA against Drosophila genes
- Timing: 5 days (4 days knock-down, then 1 day zinc)
- Challenge: zinc chloride at 15 mM final level for 1 day
- Measurement: 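Total cellular ATP measured by luciferase luminescence as a viability proxy, turned into Z scores from three plate copies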
- Scale: mean Z score: higher = more ATP than other wells, better survival under zinc; ATP luminescence: higher = more ATP, more viable cells
- Call rule: 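Hit when the absolute Z score is greater than 1.5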
- Meaning of the calls: active = hit, ATP up or down; inactive = not a hit

gene knocked down	DRSC id	mean Z score	ATP luminescence, replicate 1	ATP luminescence, replicate 2
Elovl7	DRSC15452	-0.945	33662	43502
Elovl7	DRSC21570	2.24 (active)	72654	76462
Elovl7	DRSC25259	-0.255	54682	60289
snky	DRSC09838	-0.139	74404	56654
snky	DRSC39770	-0.694	43177	49880
Ir93a	DRSC15212	0.336	46280	57099
Ir93a	DRSC28149	0.304	59620	56482
Tom20	DRSC10899	-0.358	27457	29753
CG31259	DRSC14366	-0.06	41344	58542
CG31259	DRSC39814	0.344	62810	59226
prom	DRSC22088	-0.235	44240	46331
prom	DRSC26828	-0.325	57151	46177
prom	DRSC27557	-0.338	60358	57486
prom	DRSC39649	-0.214	56911	55179
CG13077	DRSC02181	-0.0365	46177	38668
CG13077	DRSC39515	-0.166	52521	47435
CG42269	DRSC10672	-0.109	77628	55350
CG42269	DRSC24477	-0.121	55282	54630
Sec22	DRSC29297	-0.238	55213	60289
Sec22	DRSC39605	-0.315	57511	56122
Gr98a	DRSC14719	-0.862	43879	39249
CG14694	DRSC14917	-0.126	36850	53756
amrt	DRSC19378	-0.0523	65742	64611
amrt	DRSC26943	-0.378	55196	50961
CG4822	DRSC00669	0.107	51132	64731
Apl	DRSC10350	-0.44	67775	56499
bib	DRSC03496	1.18	70767	75055
dpy	DRSC00233	-0.381	39010	38530
dpy	DRSC00234	-0.0878	43194	43194
dpy	DRSC00472	0.00497	50309	41342
CG14777	DRSC18563	-0.27	60708	62457
wtrw	DRSC14241	0.567	51978	53601
wtrw	DRSC29977	-0.0757	46057	43897
PK2-R2	DRSC16448	-0.207	37639	57357
PK2-R2	DRSC25536	-0.169	57048	56311
Abcd1	DRSC17157	0.0685	44274	49520
Abcd1	DRSC39677	0.0265	59843	60119
140up	DRSC12634	-0.918	34971	36405
140up	DRSC28711	-0.133	60135	58540
CG18281	DRSC11742	-0.476	27751	25569
CG18281	DRSC39875	-0.528	51683	52915
CG10345	DRSC14138	-0.0392	45241	45800

Copied from the list.
Elovl7 [DRSC25259], ATP luminescence, replicate 2 → 60289
For “mean Z score”, bib [DRSC03496] shows 1.18
For “ATP luminescence, replicate 2”, wtrw [DRSC29977] has 43897
For “ATP luminescence, replicate 2”, CG18281 [DRSC11742] shows 25569
Under “ATP luminescence, replicate 1”, PK2-R2 [DRSC16448] is entered as 37639
CG13077 [DRSC02181], mean Z score = -0.0365

Next results:
gene knocked down	DRSC id	mean Z score	ATP luminescence, replicate 1	ATP luminescence, replicate 2
CG5281	DRSC15761	0.203	35787	63599
CG5281	DRSC39880	0.258	56894	72620
anne	DRSC17103	4.28 (active)	1.58e5	1.27e5
anne	DRSC29952	2.86 (active)	83563	80942
CG15706	DRSC06577	-0.341	69975	70870
CG15706	DRSC39576	-0.48	47686	53910
VAChT + ChAT	DRSC13312	-0.217	35736	56291
SPR	DRSC17886	-0.124	64885	63067
SPR	DRSC21557	0.17	49311	48514
Cln3	DRSC10520	0.0403	81453	58797
Cln3	DRSC27270	0.371	64713	61695
Drip	DRSC07405	0.241	85690	77577
PlexA	DRSC17220	-0.277	41950	42079
Ih	DRSC07445	-0.247	29736	28399
Ih	DRSC24809	0.724	66026	70802
Flo2	DRSC19062	-0.526	91008	63221
Flo2	DRSC20244	0.378	71796	72851
Tl	DRSC16885	-0.525	38033	40839
Tl	DRSC39497	1.02	69224	60358
CG9702	DRSC16540	0.527	70133	79549
Fili	DRSC03907	0.151	43111	41736
Fili	DRSC04132	1.72 (active)	77680	48114
Fili	DRSC04445	-0.0296	50155	43211
PGRP-SC1a + PGRP-SC1b	DRSC25294	-0.056	51458	51510
Tsp68C	DRSC09295	0.607	72774	79532
Tsp68C	DRSC28942	0.471	68178	69144
